Values from PubChem BioAssay AID1224826 (NIAID, 2016)
Assay: 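Knock-downs that raise or lower Tnf reporter signal after endotoxin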 (primary screen). Cells: RAW264.7 G9 macrophages from mouse bearing reporters for p65 (GFP) and the Tnf promoter (mCherry). Knock-down reagent: siRNA pool against mouse genes, 100 nM. Duration: 16 h of LPS stimulation, after 2 days of siRNA transfection. Challenge: bacterial lipopolysaccharide (Salmonella minnesota R595), 10 ng/ml. Measured: 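Imaged Tnf reporter mCherry in nuclei, minus background, normalised per plate to the median and expressed as robust z-scores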. Reading the numbers: Tnf reporter robust z-score: higher = stronger Tnf promoter reporter signal after LPS; Tnf reporter intensity: higher = stronger Tnf promoter reporter signal. Rule for the call: 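a well counts as active at a score of -1.3 or below (Tlr4 knock-down control median) or above 3 (raised signal); controls and wells holding fewer than 50 cells are excluded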. Meaning of the calls: active = Tnf reporter clearly lowered or raised; inactive = no clear change in Tnf reporter.
The deposit covers about 17,000 reagents; shown is an unselected part. About 1,110 of all reagents (6.6%) were called active. 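Active means lowered or raised reporter signal; replicate intensities are raw and not normalised per plate.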

gene	Tnf reporter robust z-score	fewer than 50 cells in well	Tnf reporter intensity, replicate 1	Tnf reporter intensity, replicate 2	call
Nol11 (nucleolar protein 11)	1.63	enough cells in well	296	150	inactive
Dpep1 (dipeptidase 1)	0.37	enough cells in well	241	251	inactive
Thbs2 (thrombospondin 2)	-1.33	enough cells in well	150	59.8	active
H2ac8 (H2A clustered histone 8)	2.05	enough cells in well	305	236	inactive
Rrp8 (ribosomal RNA processing 8)	1.86	enough cells in well	256	172	inactive
Pafah2 (platelet-activating factor acetylhydrolase 2)	-0.17	enough cells in well	250	154	inactive
Edem3 (ER degradation enhancer, mannosidase alpha-like 3)	-0.28	enough cells in well	105	185	inactive
Ubxn8 (UBX domain protein 8)	0.48	enough cells in well	222	197	inactive
Gnb1l	2.18	enough cells in well	489	242	inactive
Mrps23 (mitochondrial ribosomal protein S23)	0.98	enough cells in well	367	104	inactive
Xk	-0.4	enough cells in well	169	234	inactive
Heph (hephaestin)	-0.24	enough cells in well	235	81.4	inactive
H6pd (hexose-6-phosphate dehydrogenase (glucose 1-dehydrogenase))	2.41	enough cells in well	445	298	inactive
Shprh (SNF2 histone linker PHD RING helicase)	-0.28	enough cells in well	94.6	90.7	inactive
Gemin2 (gem nuclear organelle associated protein 2)	-0.84	enough cells in well	231	128	inactive
Spata2 (spermatogenesis associated 2)	0.74	enough cells in well	120	129	inactive
Hmgn5 (high-mobility group nucleosome binding domain 5)	1.45	enough cells in well	326	186	inactive
Macrod1 (mono-ADP ribosylhydrolase 1)	-1.04	enough cells in well	132	97.3	inactive
Cyp26a1 (cytochrome P450, family 26, subfamily a, polypeptide 1)	0.67	enough cells in well	268	172	inactive
Scand1 (SCAN domain-containing 1)	-1.24	enough cells in well	60.8	40.3	inactive
Sidt2 (SID1 transmembrane family, member 2)	-0.49	enough cells in well	167	179	inactive
Rasd1 (RAS, dexamethasone-induced 1)	-0.56	enough cells in well	248	33.9	inactive
Prdx5 (peroxiredoxin 5)	2.08	enough cells in well	245	195	inactive
Sdha	0.05	enough cells in well	272	230	inactive
Dsg1a (desmoglein 1 alpha)	-0.54	enough cells in well	152	94.5	inactive
Ints5 (integrator complex subunit 5)	0.55	enough cells in well	294	96.1	inactive
Apc (APC, WNT signaling pathway regulator)	-1.3	enough cells in well	102	85.8	active
Strn (striatin, calmodulin binding protein)	0.24	enough cells in well	123	99.9	inactive
Coro6 (coronin 6)	-0.32	enough cells in well	137	187	inactive
Jak2 (Janus kinase 2)	-0.62	enough cells in well	150	132	inactive
Osbpl2 (oxysterol binding protein-like 2)		fewer than 50 cells per well; well left out of calls	88	56.1	inactive
Kif27 (kinesin family member 27)	0.69	enough cells in well	244	86.2	inactive
Cd40 (CD40 antigen)	0.89	enough cells in well	292	181	inactive
Gart (phosphoribosylglycinamide formyltransferase)	0.39	enough cells in well	273	283	inactive
Or6c75 (olfactory receptor family 6 subfamily C member 75)		fewer than 50 cells per well; well left out of calls	28.3	59.6	inactive
Lipt2 (lipoyl(octanoyl) transferase 2 (putative))		fewer than 50 cells per well; well left out of calls	243	104	inactive
Cops4 (COP9 signalosome subunit 4)	0.23	enough cells in well	173	218	inactive
Tdpoz4 (TD and POZ domain containing 4)		fewer than 50 cells per well; well left out of calls	62	47.2	inactive
Kat2a (K(lysine) acetyltransferase 2A)	-1.92	enough cells in well	89.3	64.5	active
Usp25 (ubiquitin specific peptidase 25)	-0.63	enough cells in well	158	208	inactive
Acp2 (acid phosphatase 2, lysosomal)	1.32	enough cells in well	232	257	inactive
Bag4 (BCL2-associated athanogene 4)	0.77	enough cells in well	176	213	inactive
Or8c13 (olfactory receptor family 8 subfamily C member 13)	1.75	enough cells in well	131	219	inactive
Sucnr1 (succinate receptor 1)	-0.64	enough cells in well	142	278	inactive
Nf1 (neurofibromin 1)	-0.8	enough cells in well	213	133	inactive
C230013L11Rik (RIKEN cDNA C230013L11 gene)	2.16	enough cells in well	262	287	inactive
Rrm1 (ribonucleotide reductase M1)		fewer than 50 cells per well; well left out of calls	0	65.4	inactive
Snph (syntaphilin)		fewer than 50 cells per well; well left out of calls	92.4	68.7	inactive
Or8b1b (olfactory receptor family 8 subfamily B member 1B)	0.31	enough cells in well	89.7	154	inactive
Rpgrip1 (retinitis pigmentosa GTPase regulator interacting protein 1)	0.49	enough cells in well	460	173	inactive
Agap1 (ArfGAP with GTPase domain, ankyrin repeat and PH domain 1)	1.71	enough cells in well	199	360	inactive
Scyl1 (SCY1-like 1 (S. cerevisiae))	-0.3	enough cells in well	195	126	inactive
Nit1 (nitrilase 1)	0.11	enough cells in well	217	138	inactive
Zdhhc21 (zinc finger, DHHC domain containing 21)	-0.1	enough cells in well	115	125	inactive
Klf5 (Kruppel-like transcription factor 5)	-0.65	enough cells in well	201	107	inactive
Trim30b (tripartite motif-containing 30B)	0.91	enough cells in well	184	244	inactive
Ralbp1 (ralA binding protein 1)	0.26	enough cells in well	310	240	inactive
Hspa12b (heat shock protein family A (Hsp70) member 12B)	2.42	enough cells in well	368	225	inactive

Laid out differently: 10 of the entries above.
gene | Tnf reporter robust z-score | fewer than 50 cells in well | Tnf reporter intensity, replicate 1 | Tnf reporter intensity, replicate 2 | call
Strn (striatin, calmodulin binding protein) | 0.24 | enough cells in well | 123 | 99.9 | inactive
Coro6 (coronin 6) | -0.32 | enough cells in well | 137 | 187 | inactive
Jak2 (Janus kinase 2) | -0.62 | enough cells in well | 150 | 132 | inactive
Osbpl2 (oxysterol binding protein-like 2) | – | fewer than 50 cells per well; well left out of calls | 88 | 56.1 | inactive
Kif27 (kinesin family member 27) | 0.69 | enough cells in well | 244 | 86.2 | inactive
Cd40 (CD40 antigen) | 0.89 | enough cells in well | 292 | 181 | inactive
Gart (phosphoribosylglycinamide formyltransferase) | 0.39 | enough cells in well | 273 | 283 | inactive
Or6c75 (olfactory receptor family 6 subfamily C member 75) | – | fewer than 50 cells per well; well left out of calls | 28.3 | 59.6 | inactive
Lipt2 (lipoyl(octanoyl) transferase 2 (putative)) | – | fewer than 50 cells per well; well left out of calls | 243 | 104 | inactive
Cops4 (COP9 signalosome subunit 4) | 0.23 | enough cells in well | 173 | 218 | inactive
